Paper PMC11996887
Results are given in words; binding and its absence hold for the method and conditions named. Binding seen in cells or lysates may run through a third protein. Binding can be weak; no strength is given.

Molecular target: T1, PGLYRP2, full-length expression construct (human) (UniProt Q96PD5)
T1 sequence: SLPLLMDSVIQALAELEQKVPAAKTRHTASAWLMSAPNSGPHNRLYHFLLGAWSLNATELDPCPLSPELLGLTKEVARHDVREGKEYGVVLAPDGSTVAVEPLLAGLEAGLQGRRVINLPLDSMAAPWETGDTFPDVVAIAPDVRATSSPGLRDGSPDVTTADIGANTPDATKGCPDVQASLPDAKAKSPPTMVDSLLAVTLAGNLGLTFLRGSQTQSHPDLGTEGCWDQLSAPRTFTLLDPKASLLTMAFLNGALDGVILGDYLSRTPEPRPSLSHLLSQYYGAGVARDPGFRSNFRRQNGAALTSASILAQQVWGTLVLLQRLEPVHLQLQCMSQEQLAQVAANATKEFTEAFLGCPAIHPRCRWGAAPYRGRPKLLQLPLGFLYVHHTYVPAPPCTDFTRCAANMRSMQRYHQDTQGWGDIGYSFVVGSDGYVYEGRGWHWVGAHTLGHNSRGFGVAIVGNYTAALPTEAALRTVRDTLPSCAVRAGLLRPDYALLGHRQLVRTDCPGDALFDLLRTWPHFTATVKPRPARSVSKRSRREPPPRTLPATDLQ
Assay: pull-down; FLAG pull-down of HBV proteins with PGLYRP2 (full-length and truncated constructs); details only in Supplemental Figure 4B-D

Q: With “HBs (hepatitis B virus surface protein) (from UniProt P03138)” as the substance, how does the binding read?
A: binds
